Source: the supplement of paper PMC10849652
Some of the results follow.

By UniProt entry, the sequences of proteins in these tests, tags left out. Where a name states a change or a piece, a line headed by the entry shows the natural chain unless it says otherwise.
UniProt Q969E2: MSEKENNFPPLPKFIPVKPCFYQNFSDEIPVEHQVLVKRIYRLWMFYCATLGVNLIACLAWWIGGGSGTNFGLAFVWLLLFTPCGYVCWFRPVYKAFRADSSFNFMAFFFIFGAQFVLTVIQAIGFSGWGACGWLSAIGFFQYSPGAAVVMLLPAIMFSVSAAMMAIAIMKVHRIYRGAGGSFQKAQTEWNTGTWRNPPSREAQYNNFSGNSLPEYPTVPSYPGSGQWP
UniProt O14828: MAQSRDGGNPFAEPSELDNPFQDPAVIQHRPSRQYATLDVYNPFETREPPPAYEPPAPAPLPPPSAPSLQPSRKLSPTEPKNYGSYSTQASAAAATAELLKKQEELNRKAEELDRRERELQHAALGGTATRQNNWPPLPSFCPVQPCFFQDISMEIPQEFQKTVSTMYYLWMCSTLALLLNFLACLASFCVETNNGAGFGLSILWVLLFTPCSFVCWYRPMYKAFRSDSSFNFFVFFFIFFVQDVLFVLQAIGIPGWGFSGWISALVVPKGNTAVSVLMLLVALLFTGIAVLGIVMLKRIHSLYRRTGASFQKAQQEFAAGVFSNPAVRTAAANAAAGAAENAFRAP
UniProt Q14151: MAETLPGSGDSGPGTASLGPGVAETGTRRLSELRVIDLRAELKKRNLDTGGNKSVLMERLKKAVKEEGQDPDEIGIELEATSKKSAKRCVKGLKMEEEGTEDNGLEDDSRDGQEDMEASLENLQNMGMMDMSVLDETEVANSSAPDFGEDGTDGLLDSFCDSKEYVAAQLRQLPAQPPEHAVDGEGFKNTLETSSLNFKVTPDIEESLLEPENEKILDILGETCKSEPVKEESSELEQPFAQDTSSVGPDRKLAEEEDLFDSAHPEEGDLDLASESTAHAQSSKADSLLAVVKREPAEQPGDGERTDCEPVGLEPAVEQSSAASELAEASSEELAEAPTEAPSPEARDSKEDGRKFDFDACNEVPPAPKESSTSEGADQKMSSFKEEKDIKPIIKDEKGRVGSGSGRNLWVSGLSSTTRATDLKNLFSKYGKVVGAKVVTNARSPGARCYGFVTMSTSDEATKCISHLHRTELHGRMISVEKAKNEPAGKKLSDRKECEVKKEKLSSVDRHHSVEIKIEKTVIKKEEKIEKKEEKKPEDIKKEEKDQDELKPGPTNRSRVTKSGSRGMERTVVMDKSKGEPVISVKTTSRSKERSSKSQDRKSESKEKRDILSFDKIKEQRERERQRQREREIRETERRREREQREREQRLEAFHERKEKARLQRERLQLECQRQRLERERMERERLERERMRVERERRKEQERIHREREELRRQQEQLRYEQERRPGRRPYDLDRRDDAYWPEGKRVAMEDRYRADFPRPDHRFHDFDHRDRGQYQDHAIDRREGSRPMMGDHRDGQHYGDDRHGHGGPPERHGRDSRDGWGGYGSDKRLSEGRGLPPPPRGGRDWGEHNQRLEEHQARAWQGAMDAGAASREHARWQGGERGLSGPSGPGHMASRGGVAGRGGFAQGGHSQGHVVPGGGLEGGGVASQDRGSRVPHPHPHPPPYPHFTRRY
UniProt Q15424: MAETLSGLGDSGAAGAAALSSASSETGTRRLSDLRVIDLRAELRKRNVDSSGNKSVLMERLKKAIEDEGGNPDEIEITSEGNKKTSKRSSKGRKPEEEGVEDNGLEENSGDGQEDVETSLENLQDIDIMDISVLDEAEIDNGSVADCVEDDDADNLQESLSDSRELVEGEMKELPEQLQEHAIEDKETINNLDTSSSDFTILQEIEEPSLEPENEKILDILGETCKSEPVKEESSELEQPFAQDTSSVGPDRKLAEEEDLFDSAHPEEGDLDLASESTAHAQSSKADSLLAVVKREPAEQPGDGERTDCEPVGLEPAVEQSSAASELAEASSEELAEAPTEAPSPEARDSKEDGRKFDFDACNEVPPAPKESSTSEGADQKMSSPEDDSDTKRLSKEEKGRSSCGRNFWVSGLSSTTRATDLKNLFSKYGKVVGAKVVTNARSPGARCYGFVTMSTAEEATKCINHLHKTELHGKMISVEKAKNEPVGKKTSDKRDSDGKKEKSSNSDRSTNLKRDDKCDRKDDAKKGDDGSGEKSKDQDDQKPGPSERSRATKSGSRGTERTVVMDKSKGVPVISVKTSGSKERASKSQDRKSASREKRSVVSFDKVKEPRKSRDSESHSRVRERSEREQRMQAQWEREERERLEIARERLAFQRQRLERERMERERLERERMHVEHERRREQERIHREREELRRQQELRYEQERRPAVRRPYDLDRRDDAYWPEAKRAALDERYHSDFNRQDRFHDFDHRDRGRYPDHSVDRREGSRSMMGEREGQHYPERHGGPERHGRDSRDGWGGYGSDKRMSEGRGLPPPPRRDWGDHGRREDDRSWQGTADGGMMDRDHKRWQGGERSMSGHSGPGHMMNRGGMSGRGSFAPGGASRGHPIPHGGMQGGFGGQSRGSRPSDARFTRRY
UniProt Q9NSI8: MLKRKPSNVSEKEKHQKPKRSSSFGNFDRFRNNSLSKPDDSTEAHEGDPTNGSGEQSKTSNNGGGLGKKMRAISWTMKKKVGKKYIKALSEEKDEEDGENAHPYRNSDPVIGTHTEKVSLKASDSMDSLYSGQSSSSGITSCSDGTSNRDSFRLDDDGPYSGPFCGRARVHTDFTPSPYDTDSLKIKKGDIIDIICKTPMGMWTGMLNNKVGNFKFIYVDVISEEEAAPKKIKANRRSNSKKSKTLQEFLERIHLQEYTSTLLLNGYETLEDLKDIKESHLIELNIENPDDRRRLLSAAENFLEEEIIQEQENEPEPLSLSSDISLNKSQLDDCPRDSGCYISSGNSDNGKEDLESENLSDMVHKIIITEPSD
UniProt Q9UHD8: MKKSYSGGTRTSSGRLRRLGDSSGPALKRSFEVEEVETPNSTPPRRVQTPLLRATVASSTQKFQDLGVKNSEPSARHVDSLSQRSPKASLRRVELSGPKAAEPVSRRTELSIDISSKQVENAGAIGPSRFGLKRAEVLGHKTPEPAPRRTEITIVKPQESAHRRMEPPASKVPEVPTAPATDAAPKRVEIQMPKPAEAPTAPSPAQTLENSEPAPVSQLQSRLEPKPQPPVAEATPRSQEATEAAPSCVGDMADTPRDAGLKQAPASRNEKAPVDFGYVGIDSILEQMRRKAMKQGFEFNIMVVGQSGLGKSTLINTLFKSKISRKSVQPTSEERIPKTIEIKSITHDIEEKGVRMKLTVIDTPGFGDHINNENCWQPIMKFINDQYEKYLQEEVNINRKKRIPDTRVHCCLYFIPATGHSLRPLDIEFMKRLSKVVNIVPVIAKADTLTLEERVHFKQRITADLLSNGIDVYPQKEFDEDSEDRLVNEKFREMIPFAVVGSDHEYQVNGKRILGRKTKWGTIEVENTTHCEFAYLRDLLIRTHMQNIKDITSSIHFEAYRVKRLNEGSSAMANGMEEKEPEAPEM
UniProt P67812: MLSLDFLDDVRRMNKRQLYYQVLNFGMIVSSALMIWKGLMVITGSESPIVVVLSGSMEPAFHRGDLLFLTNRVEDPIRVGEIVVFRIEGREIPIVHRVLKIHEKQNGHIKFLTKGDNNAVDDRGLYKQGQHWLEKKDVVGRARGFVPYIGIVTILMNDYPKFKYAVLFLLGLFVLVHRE
UniProt Q14141: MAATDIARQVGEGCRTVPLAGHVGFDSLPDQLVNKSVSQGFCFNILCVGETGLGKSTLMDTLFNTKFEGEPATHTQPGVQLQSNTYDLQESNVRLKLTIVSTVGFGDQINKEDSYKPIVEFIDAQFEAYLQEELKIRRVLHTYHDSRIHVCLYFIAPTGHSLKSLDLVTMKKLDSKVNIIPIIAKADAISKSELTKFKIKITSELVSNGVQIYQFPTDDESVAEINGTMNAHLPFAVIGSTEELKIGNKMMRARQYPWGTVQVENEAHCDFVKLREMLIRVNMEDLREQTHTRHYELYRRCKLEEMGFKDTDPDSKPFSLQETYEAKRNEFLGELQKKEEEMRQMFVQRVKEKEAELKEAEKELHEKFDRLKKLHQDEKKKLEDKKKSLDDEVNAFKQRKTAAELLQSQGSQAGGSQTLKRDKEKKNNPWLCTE
UniProt O43290: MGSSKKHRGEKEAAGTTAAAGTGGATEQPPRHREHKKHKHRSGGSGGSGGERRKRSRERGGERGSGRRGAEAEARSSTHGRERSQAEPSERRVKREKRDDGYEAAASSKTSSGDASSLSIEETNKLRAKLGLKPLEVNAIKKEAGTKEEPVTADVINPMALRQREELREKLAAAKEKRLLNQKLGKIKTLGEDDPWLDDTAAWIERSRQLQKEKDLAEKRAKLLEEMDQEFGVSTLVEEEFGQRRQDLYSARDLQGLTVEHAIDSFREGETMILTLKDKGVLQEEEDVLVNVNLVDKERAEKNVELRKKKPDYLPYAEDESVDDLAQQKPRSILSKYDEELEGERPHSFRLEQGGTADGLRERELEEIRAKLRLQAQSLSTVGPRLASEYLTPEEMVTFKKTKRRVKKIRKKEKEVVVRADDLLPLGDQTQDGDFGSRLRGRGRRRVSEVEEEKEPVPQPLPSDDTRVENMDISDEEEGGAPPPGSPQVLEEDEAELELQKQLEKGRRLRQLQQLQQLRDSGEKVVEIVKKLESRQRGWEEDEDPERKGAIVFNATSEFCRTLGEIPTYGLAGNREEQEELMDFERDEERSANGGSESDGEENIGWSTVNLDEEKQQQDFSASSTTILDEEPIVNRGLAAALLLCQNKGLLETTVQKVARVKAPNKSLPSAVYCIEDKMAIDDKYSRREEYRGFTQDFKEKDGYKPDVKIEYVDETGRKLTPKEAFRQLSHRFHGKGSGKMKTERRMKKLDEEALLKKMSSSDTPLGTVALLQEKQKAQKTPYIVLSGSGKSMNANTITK
UniProt O00560: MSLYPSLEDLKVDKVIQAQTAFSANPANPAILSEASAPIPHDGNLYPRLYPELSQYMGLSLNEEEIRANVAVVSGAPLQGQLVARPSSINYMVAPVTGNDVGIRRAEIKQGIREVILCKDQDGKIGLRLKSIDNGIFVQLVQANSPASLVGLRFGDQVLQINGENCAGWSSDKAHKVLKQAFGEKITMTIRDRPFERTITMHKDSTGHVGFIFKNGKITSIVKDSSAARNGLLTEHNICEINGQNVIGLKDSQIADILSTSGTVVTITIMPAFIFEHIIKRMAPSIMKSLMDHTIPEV
UniProt O75880: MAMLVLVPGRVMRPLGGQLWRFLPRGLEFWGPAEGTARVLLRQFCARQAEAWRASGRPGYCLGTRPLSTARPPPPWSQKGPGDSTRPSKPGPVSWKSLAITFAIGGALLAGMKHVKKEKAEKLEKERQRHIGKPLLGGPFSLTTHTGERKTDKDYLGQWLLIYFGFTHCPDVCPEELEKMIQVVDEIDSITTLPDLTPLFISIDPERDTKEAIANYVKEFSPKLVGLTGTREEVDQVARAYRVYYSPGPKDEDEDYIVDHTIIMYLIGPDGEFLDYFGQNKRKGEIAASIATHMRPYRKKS
UniProt P61619, whole entry, looked up: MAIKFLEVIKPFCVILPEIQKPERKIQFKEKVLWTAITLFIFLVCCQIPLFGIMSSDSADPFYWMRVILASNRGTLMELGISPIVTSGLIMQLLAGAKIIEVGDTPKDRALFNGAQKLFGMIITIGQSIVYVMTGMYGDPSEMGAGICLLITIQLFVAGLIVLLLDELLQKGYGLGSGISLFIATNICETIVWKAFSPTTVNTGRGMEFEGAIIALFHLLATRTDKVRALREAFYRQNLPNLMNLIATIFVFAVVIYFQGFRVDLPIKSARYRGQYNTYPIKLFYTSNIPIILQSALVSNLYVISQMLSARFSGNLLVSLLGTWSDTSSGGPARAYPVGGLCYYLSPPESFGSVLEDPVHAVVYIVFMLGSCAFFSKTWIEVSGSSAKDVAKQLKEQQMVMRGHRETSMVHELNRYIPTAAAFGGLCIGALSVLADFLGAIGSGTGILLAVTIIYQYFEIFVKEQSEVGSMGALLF
UniProt Q9Y3Z3: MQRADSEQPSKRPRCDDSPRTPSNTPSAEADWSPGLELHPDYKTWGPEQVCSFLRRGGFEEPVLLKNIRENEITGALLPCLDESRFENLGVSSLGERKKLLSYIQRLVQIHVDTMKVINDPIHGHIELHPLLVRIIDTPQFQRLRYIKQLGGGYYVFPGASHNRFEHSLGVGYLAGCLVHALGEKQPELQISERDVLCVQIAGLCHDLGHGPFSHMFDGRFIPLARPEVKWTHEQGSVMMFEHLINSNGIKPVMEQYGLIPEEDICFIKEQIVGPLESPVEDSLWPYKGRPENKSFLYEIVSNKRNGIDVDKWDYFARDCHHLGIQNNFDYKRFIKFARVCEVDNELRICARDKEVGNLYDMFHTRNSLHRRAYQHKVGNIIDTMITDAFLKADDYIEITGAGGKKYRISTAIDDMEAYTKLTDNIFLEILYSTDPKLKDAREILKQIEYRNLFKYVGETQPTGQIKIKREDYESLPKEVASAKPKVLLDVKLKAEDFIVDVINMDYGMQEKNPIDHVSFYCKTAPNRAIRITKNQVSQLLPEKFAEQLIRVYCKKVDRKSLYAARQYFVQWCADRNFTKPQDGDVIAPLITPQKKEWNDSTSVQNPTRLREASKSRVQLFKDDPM

Key:
Experiment in all cases: log2 fold change, soluble protein after heating vs DMSO (PISA); higher = thermal stabilisation; K562 lysate, 10 uM; active = over 0.2 and 3.5 SD of the protein, either way, in both replicates (recomputed)
[1] = compound: C=CC(=O)N1CCC[C@@H](n2nc(-c3ccc(Oc4ccccc4)cc3)c3c(N)ncnc32)C1 [ibrutinib]
How it was run: (§1)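 Dounce homogenisation of K562 pellets in PBS pH 7.4 with 1 mM MgCl2 produced a crude extract, used at 1 mg/mL protein. Exposure to 10 μM compound lasted 30 min, and aliquots were then heated for 3 min across 48°C-58°C, pooled and brought to 0.5% NP-40 at 4°C. The supernatant after 21,000xg for 90 min was quantified by TMTpro 16plex LC-MS/MS with channel sums equalised. Duplicate values are given as log-two fold change in thermal stability relative to solvent controls.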

[2] = compound: CC(=O)c1cnc2ccc(-c3cc(Cl)c(O)c(Cl)c3)nc2c1N[C@H]1CC[C@H](CN(C)C)CC1
How it was run: as §1

[3] = compound: CC(C)(C)Cn1c(N)nc2ccc(-c3[nH]c(C(C)(C)C)nc3-c3ccc(F)cc3)nc21 [ralimetinib]
How it was run: as §1

[4] = compound: CC(C)(O)CC(=O)NCCn1ccc2ncnc(Nc3ccc(Oc4cccc(C(F)(F)F)c4)c(Cl)c3)c21
How it was run: as §1

[5] = compound: CC(C)C1=C2N=C(C=C(N2N=C1)NCC3=CC=CC=C3)NCCCCCCN
How it was run: as §1

[6] = compound: CC1=C(C(CC(=O)N1)C2=CC=C(C=C2)C(F)(F)F)C(=O)NC3=C(C=C4C(=C3)C=NN4)F
How it was run: as §1

[7] = compound: CC1=C(C2=C(C=C1)C(=O)C3=CC=CC=C3N2CCCN)C
How it was run: as §1

[8] = compound: CC1=C(C=C(C=C1)NC(=O)C2=CC(=CC=C2)C(C)(C)C#N)NC3=CC4=C(C=C3)N=CN(C4=O)C
How it was run: as §1

[9] = compound: CC1=C(C=C(C=C1)NC(=O)C2=CC(=CC=C2)N(C)C)NC(=O)C3=CC=C(C=C3)O
How it was run: as §1

[10] = compound: CC1=CC=C(C=C1)SC2=C3C=C(SC3=CN=C2)C(=O)N
How it was run: as §1

[11] = compound: CCCS(=O)(=O)Nc1ccc(F)c(C(=O)c2c[nH]c3ncc(-c4ccc(Cl)cc4)cc23)c1F [vemurafenib]
How it was run: as §1

[12] = compound: CCCS(=O)(=O)Nc1ccc(F)c(C(=O)c2c[nH]c3ncc(Cl)cc23)c1F
How it was run: as §1

[13] = compound: CCN(CCCOc1ccc2c(Nc3cc(CC(=O)Nc4cccc(F)c4)[nH]n3)ncnc2c1)CCOP(=O)(O)O [barasertib]
How it was run: as §1

[14] = compound: CC[C@@H]1C(=O)N(C)c2cnc(Nc3ccc(C(=O)NC4CCN(C)CC4)cc3OC)nc2N1C1CCCC1
How it was run: as §1

[15] = compound: CC[C@@H]1C(=O)N(C)c2cnc(Nc3ccc(C(=O)N[C@H]4CC[C@H](N5CCN(CC6CC6)CC5)CC4)cc3OC)nc2N1C(C)C [volasertib]
How it was run: as §1

[16] = compound: CCn1c(C(=O)N(C2CC2)C2CC2)cc2c3c(ncn3C)c(Nc3cc(C)n(C)n3)nc21
How it was run: as §1

[17] = compound: CCn1cc(-c2ccnc3[nH]c(-c4cccc(CN(C)C)c4)cc23)c(-c2ccc(NC(=O)N(C)C)cc2)n1
How it was run: as §1

[18] = compound: CN1CCC(CNc2ccc3ncc(-c4cccc(OC(F)(F)F)c4)n3n2)CC1
How it was run: as §1

[19] = compound: CN1CCN(CCOc2cc(OC3CCOCC3)c3c(Nc4c(Cl)ccc5c4OCO5)ncnc3c2)CC1 [saracatinib]
How it was run: as §1

[20] = compound: CN1CCN(c2nc(C3=C(c4c[nH]c5ccccc45)C(=O)NC3=O)c3ccccc3n2)CC1 [sotrastaurin]
How it was run: as §1

Measured: log2 fold change

SCAMP4 (UniProt Q969E2)
inactive: [1] 0 | [2] -0.054 | [3] 0.034 | [4] -0.001 | [5] 0.007 | [6] 0.01 | [7] 0.007 | [8] 0.004 | [9] -0.007 | [10] -0.035 | [11] 0.05 | [12] 0.017 | [13] -0.015 | [14] 0.052 | [15] 0.065 | [16] -0.02 | [17] 0.055 | [18] 0.041 | [19] 0.049 | [20] -0.068

SART3, A0A499FI31
inactive: [1] -0.031 | [2] -0.007 | [3] 0.019 | [4] 0.001 | [5] 0.001 | [6] -0.015 | [7] 0.018 | [8] 0.022 | [9] 0.017 | [10] 0.001 | [11] 0.005 | [12] 0.007 | [13] -0.03 | [14] -0.013 | [15] 0.001 | [16] -0.012 | [17] 0.065 | [18] -0.067 | [19] 0 | [20] -0.014

SCAMP3 isoform 2 (UniProt O14828)
inactive: [1] -0.086 | [2] 0.108 | [3] 0.085 | [4] -0.118 | [5] -0.351 | [6] -0.049 | [7] -0.173 | [8] -0.074 | [9] -0.034 | [10] -0.107 | [11] -0.02 | [12] -0.086 | [13] -0.256 | [14] 0.135 | [15] 0.001 | [16] 0.035 | [17] 0.005 | [18] -0.006 | [19] 0.008 | [20] 0.016

SAFB2 (UniProt Q14151)
inactive: [1] 0.037 | [2] -0.008 | [3] -0.02 | [4] -0.021 | [5] 0.025 | [6] 0.012 | [7] -0.011 | [8] 0.005 | [9] 0.002 | [10] -0.013 | [11] -0.008 | [12] -0.031 | [13] -0.028 | [14] 0.027 | [15] 0.015 | [16] 0.006 | [17] -0.12 | [18] 0.069 | [19] -0.026 | [20] 0.01

SAFB isoform 3 (UniProt Q15424)
inactive: [1] 0.044 | [2] 0.012 | [3] -0.063 | [4] -0.006 | [5] -0.017 | [6] -0.012 | [7] -0.02 | [8] -0.011 | [9] -0.018 | [10] -0.046 | [11] 0.038 | [12] 0.017 | [13] 0.018 | [14] 0.054 | [15] -0.019 | [16] 0.016 | [17] -0.16 | [18] 0.054 | [19] -0.025 | [20] 0.02

SAMSN1 (UniProt Q9NSI8)
inactive: [1] 0.005 | [2] 0.011 | [3] 0.007 | [4] -0.015 | [5] -0.011 | [6] -0.028 | [7] 0.016 | [8] 0.013 | [9] -0.026 | [10] -0.001 | [11] -0.008 | [12] -0.015 | [13] -0.035 | [14] 0.039 | [15] 0.011 | [16] -0.014 | [17] -0.024 | [18] 0.031 | [19] -0.016 | [20] 0.009

SEPTIN9 (UniProt Q9UHD8)
inactive: [1] 0.027 | [2] -0.011 | [3] 0.005 | [4] -0.026 | [5] -0.017 | [6] -0.005 | [7] -0.008 | [8] 0.001 | [9] -0.017 | [10] -0.008 | [11] -0.012 | [12] -0.009 | [13] -0.003 | [14] 0.019 | [15] 0.021 | [16] -0.021 | [17] -0.232 | [18] 0.08 | [19] 0.011 | [20] 0.024

SEC11A (UniProt P67812)
inactive: [1] -0.032 | [2] -0.015 | [3] -0.004 | [4] -0.025 | [5] -0.045 | [6] 0.032 | [7] 0.034 | [8] 0.012 | [9] 0.019 | [10] -0.021 | [11] 0.016 | [12] 0.01 | [13] 0.048 | [14] -0.018 | [15] 0.02 | [16] -0.045 | [17] -0.025 | [18] -0.011 | [19] 0.036 | [20] 0.029

SEPTIN6 (UniProt Q14141)
inactive: [1] -0.002 | [2] -0.016 | [3] -0.01 | [4] -0.037 | [5] 0 | [6] -0.032 | [7] 0.006 | [8] 0.06 | [9] 0.043 | [10] -0.002 | [11] 0.035 | [12] 0.016 | [13] 0.012 | [14] 0.021 | [15] 0.041 | [16] -0.018 | [17] 0.023 | [18] 0.002 | [19] 0.005 | [20] 0.044

SART1 (UniProt O43290)
inactive: [1] 0.025 | [2] 0 | [3] -0.026 | [4] -0.013 | [5] 0.031 | [6] -0.005 | [7] -0.043 | [8] 0.026 | [9] -0.016 | [10] -0.014 | [11] 0.009 | [12] 0.009 | [13] 0.006 | [14] 0.047 | [15] -0.004 | [16] -0.026 | [17] 0.001 | [18] -0.038 | [19] -0.004 | [20] -0.004

SDCBP (UniProt O00560)
inactive: [1] 0.024 | [2] -0.004 | [3] -0.018 | [4] 0.059 | [5] 0.035 | [6] 0.008 | [7] 0.006 | [8] 0.039 | [9] -0.021 | [10] -0.003 | [11] 0.017 | [12] 0.01 | [13] 0.061 | [14] -0.041 | [15] 0.007 | [16] -0.027 | [17] -0.023 | [18] 0.016 | [19] -0.011 | [20] -0.027

SCO1 (UniProt O75880)
inactive: [1] 0.029 | [2] 0.006 | [3] -0.006 | [4] -0.072 | [5] -0.11 | [6] 0.044 | [7] -0.011 | [8] 0.021 | [9] -0.065 | [10] -0.023 | [11] -0.027 | [12] -0.012 | [13] -0.008 | [14] -0.009 | [15] 0.025 | [16] -0.027 | [17] -0.01 | [18] 0.016 | [19] 0.006 | [20] 0.016

3 consecutive entries out of the list so far:
SEPTIN6 (UniProt Q14141)
inactive: [1] -0.002 | [2] -0.016 | [3] -0.01 | [4] -0.037 | [5] 0 | [6] -0.032 | [7] 0.006 | [8] 0.06 | [9] 0.043 | [10] -0.002 | [11] 0.035 | [12] 0.016 | [13] 0.012 | [14] 0.021 | [15] 0.041 | [16] -0.018 | [17] 0.023 | [18] 0.002 | [19] 0.005 | [20] 0.044

SART1 (UniProt O43290)
inactive: [1] 0.025 | [2] 0 | [3] -0.026 | [4] -0.013 | [5] 0.031 | [6] -0.005 | [7] -0.043 | [8] 0.026 | [9] -0.016 | [10] -0.014 | [11] 0.009 | [12] 0.009 | [13] 0.006 | [14] 0.047 | [15] -0.004 | [16] -0.026 | [17] 0.001 | [18] -0.038 | [19] -0.004 | [20] -0.004

SDCBP (UniProt O00560)
inactive: [1] 0.024 | [2] -0.004 | [3] -0.018 | [4] 0.059 | [5] 0.035 | [6] 0.008 | [7] 0.006 | [8] 0.039 | [9] -0.021 | [10] -0.003 | [11] 0.017 | [12] 0.01 | [13] 0.061 | [14] -0.041 | [15] 0.007 | [16] -0.027 | [17] -0.023 | [18] 0.016 | [19] -0.011 | [20] -0.027

The list continues.

SEC61A1 (UniProt P61619)
inactive: [1] -0.03 | [2] -0.044 | [3] 0.003 | [4] -0.041 | [5] 0.001 | [6] 0.025 | [7] -0.041 | [8] 0 | [9] 0.024 | [10] -0.027 | [11] 0.069 | [12] 0.003 | [13] -0.051 | [14] 0.071 | [15] 0.058 | [16] -0.054 | [17] -0.025 | [18] 0.073 | [19] -0.008 | [20] -0.053

SAMHD1 (UniProt Q9Y3Z3)
inactive: [1] -0.009 | [2] -0.022 | [3] 0.056 | [4] -0.004 | [5] -0.002 | [6] 0.003 | [7] -0.017 | [8] 0.006 | [9] 0.067 | [10] -0.003 | [11] 0.034 | [12] 0.045 | [13] 0.007 | [14] -0.032 | [15] -0.037 | [16] 0.068 | [17] -0.096 | [18] 0.079 | [19] -0.052 | [20] 0.032

SEC31A (UniProt D6REX3)
inactive: [1] 0.003 | [2] -0.003 | [3] -0.008 | [4] -0.012 | [5] -0.016 | [6] -0.003 | [7] 0.035 | [8] 0.013 | [9] -0.004 | [10] 0.012 | [11] -0.023 | [12] -0.002 | [13] 0.006 | [14] -0.025 | [15] -0.005 | [16] -0.001 | [17] -0.05 | [18] 0.024 | [19] -0.03 | [20] -0.02
